Reference: PubChem BioAssay AID248 (DTP/NCI, 2004)
The list does not hold the whole screen: it is rich in T/C values a quarter to a half above the control, in often repeated tests (any T/C) and in doses without a T/C. Other doses and runs of a compound stand elsewhere. T/C is the treated group as % of the vehicle group. Some doses have a count of surviving animals in place of a T/C: the source files T/C as zero there, which appears to mark a toxic dose or a test without result, not a measured value. Some doses without a T/C left all or most animals alive at the check, yet need not have been tolerated: survival well below the control is almost never listed, so the zero probably covers shortened survival too. Survivors were counted at the toxicity check, usually on the fifth day, unless a day is given; later deaths do not show. Schedules are NCI's codes, read here as Q, the interval in days (D) or hours (H), X, the number of doses. Some schedule codes hold Z or #, which are not explained here. Some molecules as drawn cover several salts, stereoisomers or complexes of the source; a dose is that of the sample tested. Some entries were tested several times; the values are given in rising order. For survival time, this PubChem deposit counts one and a half times the control or more as active, and values a quarter to a half above the control carry no call in these data; other NCI protocols may use other cut-offs.

Test system: L1210 leukemia ip in BDF1 mice, survival T/C
Assay: NCI In Vivo Anticancer Drug Screen. Data for tumor model L1210 Leukemia (intraperitoneal) in B6D2F1 (BDF1) mice
Details: T/C endpoint: mean survival time, higher T/C = longer survival
[1] = dose: 100.0 mg/kg/injection, schedule: Q04DX003 (ip), vehicle: Klucel (hydroxypropylcellulose) (HPC)
[2] = dose: 200.0 mg/kg/injection, schedule: Q04DX003 (ip), vehicle: Klucel (hydroxypropylcellulose) (HPC)
[3] = dose: 400.0 mg/kg/injection, schedule: Q04DX003 (ip), vehicle: Klucel (hydroxypropylcellulose) (HPC)
[4] = dose: 100.0 mg/kg/injection, schedule: Q04DX003 (ip), vehicle: saline
[5] = dose: 400.0 mg/kg/injection, schedule: Q04DX003 (ip), vehicle: saline
[6] = dose: 200.0 mg/kg/injection, schedule: Q04DX003 (ip), vehicle: saline with Tween-80
[7] = dose: 400.0 mg/kg/injection, schedule: Q04DX003 (ip), vehicle: saline with Tween-80
[8] = dose: 400.0 mg/kg/injection, schedule: Q01DX001 (ip), vehicle: saline
[9] = dose: 200.0 mg/kg/injection, schedule: Q01DX009 (ip), vehicle: Klucel (hydroxypropylcellulose) (HPC)
[10] = dose: 400.0 mg/kg/injection, schedule: Q01DX009 (ip), vehicle: Klucel (hydroxypropylcellulose) (HPC)

CCOC(=O)C1(NC(=O)N(CCCl)N=O)CCCC1
T/C (dose: 62.0 mg/kg/injection, schedule: Q01DX001 (ip), vehicle: other): 127 % of control
survivor count (dose: 500.0 mg/kg/injection, schedule: Q01DX001 (ip), vehicle: other): 6 of 6
survivor count (dose: 750.0 mg/kg/injection, schedule: Q01DX001 (ip), vehicle: other): 6 of 6
survivor count (dose: 1000.0 mg/kg/injection, schedule: Q01DX001 (ip), vehicle: other): 3 of 6
survivor count (dose: 2000.0 mg/kg/injection, schedule: Q01DX001 (ip), vehicle: other): 0 of 6

O=S(=O)(O)O.[NH-]CC(N)=O.[NH-]CC(N)=O.[Ni+2]
survivor count (dose: 25.0 mg/kg/injection, schedule: Q01DX009 (ip), vehicle: water): 6 of 6
survivor count (dose: 50.0 mg/kg/injection, schedule: Q01DX009 (ip), vehicle: water): 0 of 6
survivor count (dose: 100.0 mg/kg/injection, schedule: Q01DX009 (ip), vehicle: water): 0 of 6
survivor count (dose: 100.0 mg/kg/injection, schedule: Q04DX003 (ip), vehicle: water): 5 of 6
survivor count (dose: 200.0 mg/kg/injection, schedule: Q04DX003 (ip), vehicle: water): 1 of 6
survivor count (dose: 400.0 mg/kg/injection, schedule: Q04DX003 (ip), vehicle: water): 0 of 6

ClC1C2c3ccccc3C(C1Cl)[n+]1ccccc12 (stereo not given)
survivor count (dose: 55.0 mg/kg/injection, schedule: Q01DX009 (ip), vehicle: Klucel (hydroxypropylcellulose) (HPC)): 4 of 6
survivor count (dose: 80.0 mg/kg/injection, schedule: Q01DX009 (ip), vehicle: Klucel (hydroxypropylcellulose) (HPC)): 0 of 6
survivor count [1]: 2 of 6
survivor count [2]: 0 of 6
survivor count [3]: 1 of 6

C=CC[N+](CCO)(CCO)CCCCCCCCCCCCCCCCCC
survivor count (dose: 50.0 mg/kg/injection, schedule: Q04DX002 (ip), vehicle: saline): 0 of 3
survivor count (dose: 100.0 mg/kg/injection, schedule: Q04DX002 (ip), vehicle: saline): 2 of 3
survivor count (dose: 200.0 mg/kg/injection, schedule: Q04DX002 (ip), vehicle: saline): 0 of 3
survivor count (dose: 400.0 mg/kg/injection, schedule: Q04DX002 (ip), vehicle: saline): 0 of 3

O=C1CC2(CCCCC2)CO1
survivor count (dose: 25.0 mg/kg/injection, schedule: Q04DX003 (ip), vehicle: saline): 1 of 4
survivor count (dose: 50.0 mg/kg/injection, schedule: Q04DX003 (ip), vehicle: saline): 0 of 4
survivor count [4]: 0 of 4
survivor count (dose: 200.0 mg/kg/injection, schedule: Q04DX003 (ip), vehicle: saline): 0 of 4
survivor count [5]: 0 of 4

NC(CSSCC(N)=NCc1ccccc1)=NCc1ccccc1
survivor count (dose: 100.0 mg/kg/injection, schedule: Q04DX003 (ip), vehicle: saline with Tween-80): 0 of 6
survivor count [6]: 0 of 6
survivor count [7]: 0 of 6

C[CH2][Pb]([CH2]C)([CH2]C)[O][As](=O)(O)c1ccc(N)cc1
survivor count (dose: 6.0 mg/kg/injection, schedule: Q01DX009 (ip), vehicle: Klucel (hydroxypropylcellulose) (HPC)): 4 of 6
survivor count (dose: 12.0 mg/kg/injection, schedule: Q01DX009 (ip), vehicle: Klucel (hydroxypropylcellulose) (HPC)): 1 of 6
survivor count (dose: 12.0 mg/kg/injection, schedule: Q04DX003 (ip), vehicle: Klucel (hydroxypropylcellulose) (HPC)): 0 of 6
survivor count (dose: 25.0 mg/kg/injection, schedule: Q04DX003 (ip), vehicle: Klucel (hydroxypropylcellulose) (HPC)): 0 of 6
survivor count (dose: 50.0 mg/kg/injection, schedule: Q04DX003 (ip), vehicle: Klucel (hydroxypropylcellulose) (HPC)): 1 of 6
survivor count [1]: 0 of 6
survivor count [2]: 0 of 6
survivor count [3]: 0 of 6

CCN(CC)CCNC(=O)c1cc(N2CCOCC2)ccn1
survivor count [8]: 3 of 6

O=[N+]([O-])c1csc2ccccc12
survivor count [9]: 1 of 6
survivor count [10]: 1 of 6

Cc1cc(C)c(NC(=O)Nc2cccc(Cl)c2)c(C)c1
survivor count [10]: 4 of 6

COCCNCCN1CCN(CCCN2c3ccccc3Sc3ccc(C(F)(F)F)cc32)CC1
survivor count (dose: 6.25 mg/kg/injection, schedule: Q04DX003 (ip), vehicle: saline): 3 of 6
survivor count (dose: 50.0 mg/kg/injection, schedule: Q01DX009 (ip), vehicle: saline): 2 of 6
survivor count [4]: 3 of 6

CCOC(=O)CNC(=O)CNC(=O)CCCCSc1ncnc2nc[nH]c12
survivor count (dose: 25.0 mg/kg/injection, schedule: Q01DX009 (oral), vehicle: saline): 6 of 6

CC1CC(C)(C)N=C(C(C)C)O1 (stereo not given)
survivor count [6]: 6 of 6
survivor count [7]: 3 of 6

O=C(O)c1ccc(Br)cc1
survivor count [5]: 1 of 6

NC(=O)c1ccc(Cl)c([N+](=O)[O-])c1
survivor count [3]: 0 of 6

Cc1cc(-c2cc(C)c(O)c(C(C)(C)C)c2)cc(C(C)(C)C)c1O
survivor count (dose: 100.0 mg/kg/injection, schedule: Q04DX002 (ip), vehicle: gum acacia): 3 of 3
survivor count (dose: 200.0 mg/kg/injection, schedule: Q04DX002 (ip), vehicle: gum acacia): 3 of 3
survivor count (dose: 400.0 mg/kg/injection, schedule: Q04DX002 (ip), vehicle: gum acacia): 3 of 3

NC(N)=NC(N)=Nc1ccc(Cl)cc1
survivor count [2]: 1 of 6
survivor count [3]: 0 of 6

CC1(C)N=C(N)N=C(N)N1c1ccc(CCCCc2ccc(Cl)cc2Cl)cc1
survivor count (dose: 40.0 mg/kg/injection, schedule: Q01DX001 (ip), vehicle: saline): 0 of 4
survivor count (dose: 50.0 mg/kg/injection, schedule: Q01DX001 (ip), vehicle: saline): 1 of 4
survivor count (dose: 80.0 mg/kg/injection, schedule: Q01DX001 (ip), vehicle: saline): 0 of 4
survivor count (dose: 100.0 mg/kg/injection, schedule: Q01DX001 (ip), vehicle: saline): 1 of 6 and 2 of 4
survivor count (dose: 200.0 mg/kg/injection, schedule: Q01DX001 (ip), vehicle: saline): 0 of 4 and 0 of 6
survivor count [8]: 0 of 4 and 0 of 6

NC(N)=NC(N)=Nc1ccccc1Br
survivor count [9]: 2 of 6
survivor count (dose: 400.0 mg/kg/injection, schedule: Q04DX002 (ip), vehicle: Klucel (hydroxypropylcellulose) (HPC)): 0 of 3
survivor count [3]: 0 of 6

CNNC(=O)c1ccncc1
survivor count (dose: 250.0 mg/kg/injection, schedule: Q01DX015 (ip), vehicle: water): 0 of 6
survivor count (dose: 500.0 mg/kg/injection, schedule: Q01DX015 (ip), vehicle: water): 0 of 6

CC(C)(C)NC(=O)C1CCCC(C(=O)NC(C)(C)C)C1 (stereo not given)
survivor count [4]: 6 of 6

COc1ccc(NC(=O)c2ccc(C(=O)Nc3ccc(OC)cc3OC)cc2)c(OC)c1
survivor count (dose: 100.0 mg/kg/injection, schedule: Q04DX002 (ip), vehicle: Klucel (hydroxypropylcellulose) (HPC)): 3 of 3

O=C/C=C/c1cccnc1
survivor count (dose: 100.0 mg/kg/injection, schedule: Q01DX009 (ip), vehicle: saline with Tween-80): 6 of 6
survivor count (dose: 400.0 mg/kg/injection, schedule: Q01DX009 (ip), vehicle: saline with Tween-80): 0 of 6

N#Cc1cc2ccccc2[n+](CCCl)c1
survivor count (dose: 10.0 mg/kg/injection, schedule: Q01DX Z (ip), vehicle: saline): 4 of 6
survivor count (dose: 30.0 mg/kg/injection, schedule: Q01DX Z (ip), vehicle: saline): 0 of 6
survivor count (dose: 100.0 mg/kg/injection, schedule: Q01DX Z (ip), vehicle: saline): 0 of 6
survivor count (dose: 300.0 mg/kg/injection, schedule: Q01DX Z (ip), vehicle: saline): 0 of 6

O=[As](O)(O)c1ccc(OCCO)cc1
survivor count (dose: 400.0 mg/kg/injection, schedule: Q01DX009 (ip), vehicle: saline): 2 of 6

O=C(N/N=C/c1cccc2ccccc12)c1cccnc1
survivor count [9]: 6 of 6
survivor count [10]: 1 of 6
